# Source: the supplement of paper PMC5407854, “Inhibitor of ppGalNAc-T3-mediated O-glycosylation blocks cancer cell invasiveness and lowers FGF23 levels” (eLife, 2017)
# In all, about 1,700 compounds were measured (“T3 sensor activation Q score (MG/GFP ratio z-score vs DMSO controls)”: median about 0.25, highest 2% from about 1.9 on). Some of the results follow.
# Test system: ppGalNAc-T3 sensor
# Experiment: T3 sensor activation Q score (MG/GFP ratio z-score vs DMSO controls) (SD units); higher = more sensor activation (inhibition of ppGalNAc-T3 glycosylation)
# Conditions: HEK293 sensor cells; 10 µM; 6 h
# Experimental: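 Cells were treated with compound at 10 uM for 6 h, then MG/GFP ratio was read by flow cytometry (10,000 cells per well, duplicate wells). Q = (R - R_neg)/SD_neg relative to DMSO vehicle controls; the signal rises when the glycosyltransferase is inhibited.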
row,Structure (SMILES),T3 sensor activation Q score
1,C=CCC(CC)C(=O)NC(=O)N1CCCc2ccccc21 (stereo unspecified),0.6
2,CCOP(=O)(OCC)/C(C#N)=C/c1ccc(-c2ccc(F)cc2F)o1,-0.15
3,O=[N+]([O-])c1ccc2[nH]c3nc4ccccc4nc3c2c1,0.55
4,CC(C)n1cc(C#N)c(N)n1,1.3
5,C=CCOCCN(CC)CC,-0.05
6,Cc1ccc(Cl)cc1NC(=O)c1cc2ccccc2cc1O,-1.65
7,O=C(O)Cc1ccc(N=Nc2c(O)c(C(=O)O)cc3ccccc23)cc1,0.95
8,CC(C)c1ncc(CO)n1Cc1c(Cl)cccc1Cl,1.85
9,Cc1cc(O)cc2c1[C@H]1CC[C@]3(C)C(=O)CC[C@H]3[C@@H]1C=C2,0.75
10,NS(=O)(=O)c1ccc(NC(=S)NC(=O)c2ccco2)cc1,1
11,O=C(O)CSc1ccc(NC(=O)Nc2ccccc2F)cc1,-0.45
12,COCC(=O)Oc1cc(-c2ccc(C)cc2C)c(OC(=O)COC)c(-c2ccc(C)cc2C)c1,0.5
13,O=C(C=Cc1ccc(O)c(O)c1)c1ccccc1O,-1.55
14,CC(=O)Oc1ccc2cc(-c3ccccc3)c(=O)oc2c1,0.15
15,CS(=O)(=O)OCCCCOS(C)(=O)=O,0.5
16,CC(C)CNC(=O)/C=C\C(=O)O,-0.1
17,Cn1ncc2c(NCc3ccccc3)ncnc21,-1.6
18,COc1ccc(NC(=O)N2CCN(C(=O)Nc3ccc(OC)cc3)CC2)cc1,0.15
19,O=C(Nc1cccc(Cl)c1)Nc1nccs1,0.3
20,O=C1CC(c2ccc(O)cc2)Oc2cc(O)cc(O)c21 (stereo unspecified),0.3
21,CNC(=O)c1cc(Oc2ccc(NC(=O)Nc3ccc(Cl)c(C(F)(F)F)c3)cc2)ccn1,-4.4

# No new results follow: an excerpt of the list.
row,Structure (SMILES),T3 sensor activation Q score
7,O=C(O)Cc1ccc(N=Nc2c(O)c(C(=O)O)cc3ccccc23)cc1,0.95
8,CC(C)c1ncc(CO)n1Cc1c(Cl)cccc1Cl,1.85

# Next records

row,Structure (SMILES),T3 sensor activation Q score
1,Cc1c([N+](=O)[O-])oc2c1C(=O)NCCC2,0.75
2,COc1ccccc1NC(=O)Nc1cc(C(C)C)ccc1C,0.15
3,COc1cccc2c1C(=O)c1c(O)c3c(c(O)c1C2=O)C[C@@](O)(C(C)=O)C[C@@H]3O[C@H]1C[C@H](N)[C@H](O)[C@H](C)O1,0.9
4,CN(C)c1ccc(/C=C(\C#N)C(=O)c2ccccc2)cc1,-1.15
5,CCC(C)NC(=O)c1cccc(C)c1 (stereo unspecified),1.35
6,S=c1nc[nH]c2c1cnn2-c1ccccc1,0.25
7,CC1=CC(=C2C=CC(=O)C=C2)C=C(C)N1C,-0.15
8,CCNc1nc(Cl)nc(-c2cn(-c3ccccc3)c3ccccc23)n1,0.25
9,c1ccc(N=NN2CCOCC2)cc1,-0.75
10,Clc1ccccc1/C=C/c1ccnc2ccccc12,0.85
11,Cc1ccc(Nc2nc(Cl)nc3ncn(C)c23)c(C)c1,1.35
12,Oc1[nH]c(N=C2N=c3ccccc3=N2)c2ccccc12,-1.15
13,COc1ccc([N+](=O)[O-])cc1NS(=O)(=O)c1ccc(C)cc1,-0.7
14,Cc1ccc(Nc2nnc(-c3ccc4c(c3)OCO4)o2)c(C)c1,0.95
15,CN(c1cccnc1)c1ncnc2[nH]ncc12,0.2
16,Cc1ccc(-c2cssc2=S)cc1,0
17,COC1CC(C)C(OC)c2cc(O)cc(c2O)NC(=O)/C(C)=C/C=C\C(C)C(OC(N)=O)/C(C)=C/C(C)C1OC (stereo unspecified),-0.85
18,O=c1[nH]c(=S)c2[nH]c(=S)n(-c3ccccc3)c2[nH]1,0.05
19,Nc1ccc(C(=O)Nc2ccc(NC(=O)c3ccco3)c(O)c2)cc1,1.85
20,O=C(c1ccccc1)c1ccc[nH]1,-0.75
21,CSC1=NC=C(C#N)C2=NC(c3ccc(Cl)cc3)NN12 (stereo unspecified),0.1

row,Structure (SMILES),T3 sensor activation Q score
1,Cn1ncc2c(Nc3ccc(O)cc3)nc(Cl)nc21,1.6
2,O=C(NC(=S)Nc1ccccn1)c1ccccc1,-0.35
3,C[C@@H]1C[C@H]2OC(=O)[C@@]3(C)CCC[C@@](C)([C@@H]23)[C@@]1(O)CCc1ccoc1,0.2
4,Cc1cc(NC(=O)Nc2cc(F)ccc2F)no1,0.5
5,O=C(CN1CCCC1)Nc1nc(-c2ccc(Cl)cc2)cs1,1.2
6,COC(=O)c1ccccc1NCCO,-1.1
7,O=S(=O)(Oc1ccc(Cl)cc1)c1cccc2cccnc12,0.05
8,Cc1nn(-c2ccccc2)c2c1C(c1ccc([N+](=O)[O-])cc1)C(C#N)=C(N)O2 (stereo unspecified),-0.15
9,COc1cc2c(cc1OC)C(C1(O)CCCCC1)NCC2 (stereo unspecified),-0.55
10,Cc1ccc(S(=O)(=O)Oc2cc(N)c3c(n2)CCC3)cc1,-0.15
11,CC(C)=CCC1=C(OCC(=O)O)C(=O)c2ccccc2C1=O,1.1
12,Nc1ccc(C(=O)c2cccs2)cn1,1.15
13,CC1(C)N=C(N)N=C(N)N1c1ccc(OCCCOc2ccccc2)c(Cl)c1,-1.35
14,O=C(Nc1ccc(Oc2ccc(NC(=O)Nc3ccccc3Cl)cc2)cc1)Nc1ccccc1Cl,-1.75
15,COc1cc([N+](=O)[O-])ccc1NC(=O)Oc1ccc(NC(C)=O)cc1,-0.9
16,Cc1nccnc1Sc1ccccc1,-0.1
17,COc1ccc2c(n1)Sc1nc3ccccc3nc1N2,-0.35
18,CC(C)n1cnc2c(=S)nc[nH]c21,-0.2
19,Oc1ccc2ccccc2c1N=Nc1ccc(F)cc1,1.3
20,NC1=NC(c2ccc(Cl)cc2)N(c2ccc(S(N)(=O)=O)cc2)C(N)=N1 (stereo unspecified),1.05
21,Cn1c(N)c(C(=O)/C=C/c2ccccc2)c(=O)[nH]c1=O,1.7

row,Structure (SMILES),T3 sensor activation Q score
1,Cc1nnc(-n2cccc2)s1,0.3
2,O=C(O)C1C2OC3C(OC(=O)C31)C2Br (stereo unspecified),1.4
3,C#CCSc1nnnn1-c1ccc(Br)c(C)c1,0.9
4,Cc1ccn(C)c(=N)c1,2
5,COc1cc2c(NCCCCCO)ncnc2c(OC)c1OC,1
6,O=C(C=Cc1ccccc1Cl)c1ccc(O)cc1,0.45
7,Cc1nc(NCc2ccccc2)c2cc[nH]c2n1,0.45
8,O=P(O)(O)c1cc(-c2ccccc2)oc1-c1ccccc1,-0.2
9,Cc1cc(O)c(C(C)C)cc1NC(=O)Nc1cccc2ccccc12,0.45
10,COc1cc(C(=O)C(=O)c2cc(OC)c(O)c(OC)c2)cc(OC)c1O,0.7
11,O=C1/C(=C\c2ccc([N+](=O)[O-])cc2)CCc2ccccc21,0.4
12,OC(c1cc(-c2ccc(Cl)cc2)nc2ccccc12)C1CCCCN1 (stereo unspecified),-1.1
13,COc1ccc(Nc2cc(C)nc(N)n2)cc1,-0.6
14,NC(=O)c1ccccc1NC(=O)c1ccccc1Cl,-1.5
15,CNc1ncnc2c1cnn2C1CCCCO1 (stereo unspecified),-2.65
16,Cc1cnc2c(N)cc(C)c(C)c2c1,0.4
17,CC12CCC(C(NC(=S)NN)C1=O)C2(C)C (stereo unspecified),-1.35
18,c1ccc(-n2c3ccccc3c3ccccc32)cc1,-1

# Structures listed so far containing an aryl methoxy group (ten):
row,Structure (SMILES),T3 sensor activation Q score
18,COc1ccc(NC(=O)N2CCN(C(=O)Nc3ccc(OC)cc3)CC2)cc1,0.15
2,COc1ccccc1NC(=O)Nc1cc(C(C)C)ccc1C,0.15
3,COc1cccc2c1C(=O)c1c(O)c3c(c(O)c1C2=O)C[C@@](O)(C(C)=O)C[C@@H]3O[C@H]1C[C@H](N)[C@H](O)[C@H](C)O1,0.9
13,COc1ccc([N+](=O)[O-])cc1NS(=O)(=O)c1ccc(C)cc1,-0.7
9,COc1cc2c(cc1OC)C(C1(O)CCCCC1)NCC2 (stereo unspecified),-0.55
15,COc1cc([N+](=O)[O-])ccc1NC(=O)Oc1ccc(NC(C)=O)cc1,-0.9
17,COc1ccc2c(n1)Sc1nc3ccccc3nc1N2,-0.35
5,COc1cc2c(NCCCCCO)ncnc2c(OC)c1OC,1
10,COc1cc(C(=O)C(=O)c2cc(OC)c(O)c(OC)c2)cc(OC)c1O,0.7
13,COc1ccc(Nc2cc(C)nc(N)n2)cc1,-0.6
